Results: PubChem BioAssay AID1117319 (Southern Research Institute, 2015)
The campaign covered roughly 260,000 compounds. About 1,500 (0.58%) were called active. The shares of active, inactive and inconclusive entries below differ from those in the screen.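 Rule for the calls: active = inhibition above a set limit at one or more doses, reproduced on every date tested; inconclusive = results disagree between test dates, or hit never tested in dose response; inactive = the rest.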

Amino acid sequences for entries named in this document (tags omitted). A change or cut given only in a name is not applied to a line headed by its entry.
UniProt P69720: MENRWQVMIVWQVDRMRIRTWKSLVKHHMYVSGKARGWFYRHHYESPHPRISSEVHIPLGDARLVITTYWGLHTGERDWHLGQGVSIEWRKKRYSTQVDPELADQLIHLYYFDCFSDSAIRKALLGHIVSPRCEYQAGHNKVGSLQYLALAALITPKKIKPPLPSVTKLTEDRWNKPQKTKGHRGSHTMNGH
UniProt P69721: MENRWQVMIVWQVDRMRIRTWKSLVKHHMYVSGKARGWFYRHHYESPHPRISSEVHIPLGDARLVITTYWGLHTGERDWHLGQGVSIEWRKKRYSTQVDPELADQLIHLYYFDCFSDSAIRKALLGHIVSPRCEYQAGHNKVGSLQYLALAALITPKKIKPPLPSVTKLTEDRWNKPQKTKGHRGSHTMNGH
UniProt P69722: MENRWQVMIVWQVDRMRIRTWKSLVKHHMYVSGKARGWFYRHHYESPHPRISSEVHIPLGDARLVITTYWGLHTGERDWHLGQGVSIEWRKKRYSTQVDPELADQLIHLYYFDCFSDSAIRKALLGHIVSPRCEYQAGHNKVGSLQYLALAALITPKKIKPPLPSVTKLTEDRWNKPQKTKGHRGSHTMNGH
UniProt P69723: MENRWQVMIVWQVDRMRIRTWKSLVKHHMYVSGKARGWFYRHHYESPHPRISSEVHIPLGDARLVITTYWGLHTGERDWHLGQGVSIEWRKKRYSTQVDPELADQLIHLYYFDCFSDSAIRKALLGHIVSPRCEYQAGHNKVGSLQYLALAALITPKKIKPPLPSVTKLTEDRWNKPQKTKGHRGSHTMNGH
UniProt Q9HC16: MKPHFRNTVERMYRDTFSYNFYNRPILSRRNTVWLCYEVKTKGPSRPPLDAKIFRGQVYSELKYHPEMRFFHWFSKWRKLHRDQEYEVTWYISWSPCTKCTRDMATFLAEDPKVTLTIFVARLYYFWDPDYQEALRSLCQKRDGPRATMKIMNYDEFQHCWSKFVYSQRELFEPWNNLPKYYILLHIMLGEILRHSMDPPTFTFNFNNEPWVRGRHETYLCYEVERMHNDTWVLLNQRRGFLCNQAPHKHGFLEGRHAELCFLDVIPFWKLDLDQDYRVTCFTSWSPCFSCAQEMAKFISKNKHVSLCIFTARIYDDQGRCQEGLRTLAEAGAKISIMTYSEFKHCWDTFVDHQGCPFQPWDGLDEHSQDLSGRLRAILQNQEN

Each compound was assayed against Virion infectivity factor (Human immunodeficiency virus type 1 group M subtype B (isolate BH10)) + Virion infectivity factor (Human immunodeficiency virus type 1 group M subtype B (isolate BRU/LAI)) + Virion infectivity factor (Human immunodeficiency virus type 1 group M subtype B (isolate PCV12)) + Virion infectivity factor (Human immunodeficiency virus type 1 group M subtype B (isolate HXB2)) + DNA dC->dU-editing enzyme APOBEC-3G (Homo sapiens) (UniProt P69720+P69721+P69722+P69723+Q9HC16) (assay: inhibitors of Vif binding to APOBEC3G peptide, primary screen, biochemical, TR-FRET, GST-Vif 1-94, biotin-A3G peptide, dose response retest (AID 1117319;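 note: Vif residues 1-94 fused to GST binding biotinylated APOBEC3G peptide 110-148; 0% = full assay without inhibitor and 100% = GST in place of GST-Vif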)). Settings: stronger effect = higher value.

Compound	inhibition
O=C1c2ccccc2C(Nc2ccc(F)cc2F)N1CCN1CCOCC1 (stereo unspecified)	inconclusive: 42.7%
CN1c2ccccc2C(C)(C)C12CCCC(=O)N2 (stereo unspecified)	inconclusive: 37%
Cc1ccc(Cc2cnc(NC(=O)CN3CCOCC3)s2)cc1Cl	inconclusive: 53.3%
Cc1onc(-c2ccccc2)c1C(=O)N1CCN(C(=O)c2ccco2)CC1	inconclusive: 46.6%
Brc1ccc(-c2nnc(-c3ccco3)o2)cc1	inconclusive: 55%
CCOC(=O)c1c(C)[nH]c(C(=O)CSc2nnnn2-c2ccc(C)cc2)c1C	inactive: -6.65%
COC(=O)CCCCC1SCC2NC(=O)NC21O (stereo unspecified)	inconclusive: 42.6%
CN(C)S(=O)(=O)c1ccc(C(=O)N2CCCC2c2nc3ccccc3s2)cc1 (stereo unspecified)	inconclusive: 60.4%
O=C1NC(c2ccccc2)(C(F)(F)F)SC2=CCCCCN12 (stereo unspecified)	inconclusive: 39.5%
CCOC(=O)c1ccc(NC(=S)N2CCCC2c2ccc(OC)c(OC)c2)cc1 (stereo unspecified)	inconclusive: 37.4%
Cn1c(CO)nc2cc(N)ccc21	inconclusive: 54.8%
COC(=O)C1=C(O)/C(=C\c2ccc(OCC(=O)Nc3ccccc3)cc2)N=C1C	inactive: -9.89%
CCN1CCN(C(c2ccc(OC)cc2)c2nnnn2Cc2ccc3c(c2)OCO3)CC1 (stereo unspecified)	inconclusive: 41.9%
CC(C)Nc1nnc(SCC(=O)N2CCN(C(=O)c3ccco3)CC2)s1	inconclusive: 34.1%
O=C(Cn1cc2c(n1)CCCC2)NCCCN1CCN(C2CCCCC2)CC1	inconclusive: 37.9%
COc1ccc(CCNC(=O)c2cc(-c3ccco3)on2)cc1OC	inactive: -1.47%
CN1CCN(c2ccccc2NC(=O)c2cc(Br)ccc2Cl)CC1	inconclusive: 28.5%
Cc1c(N2C(=O)c3ccc4c5c(ccc(c35)C2=O)CC4)c(=O)n(-c2ccccc2)n1C	inconclusive: 62.9%
Cc1ccc(S(=O)(=O)Cn2nnnc2CN(Cc2ccco2)Cc2cccs2)cc1	inconclusive: 37.4%
Cc1noc(COc2ccccc2OCc2onc(C)c2Cl)c1Cl	inconclusive: 36.6%
COc1cccc(C2C(C(=O)/C=C/c3ccco3)=C(O)C(=O)N2CCN2CCOCC2)c1 (stereo unspecified)	inconclusive: 52.4%
CN(C)C(CNC(=O)c1ccc(S(=O)(=O)Nc2ccccc2F)cc1)c1ccco1 (stereo unspecified)	inconclusive: 40.1%
C/C(=N/NC(=O)CNc1ccc(C)cc1)c1ccc(Br)s1	inconclusive: 38.6%

Compound	inhibition
Cc1ccc(Nc2nc(C(=O)NCC3CCCO3)cs2)cc1 (stereo unspecified)	inconclusive: 47.6%
[O-][N+]1=c2ccc(Nc3ccccc3)cc2=NC12CCCCC2	inconclusive: 44.3%
CCOC(=O)C1=C(C)N(C)C(=S)NC1c1cc(OC)ccc1OC (stereo unspecified)	inactive: 29.4%
CN1/C(=C\C=C2\N=C(c3ccc(F)cc3)OC2=O)C(C)(C)c2ccccc21	inconclusive: 46.2%
COC(=O)CCCC1=CC2=CC(=O)C(C)(OC(=O)c3cccs3)C(=O)C2=CN1c1ccc(OC)cc1 (stereo unspecified)	inconclusive: 46%
Cc1cc2c(cc1[N+](=O)[O-])NC(CNC(C)C)CC2 (stereo unspecified)	inconclusive: 43.6%
NS(=O)(=O)c1ccc(N=Nc2c(O)c(C(=O)O)cc3ccccc23)cc1	inactive: 24.6%
COc1cc(-c2nnc(NC(=O)CCS(=O)(=O)c3ccccc3)o2)cc(OC)c1OC	inactive: 2.37%
C=C(C)C1CCC(C)=C1CC(C)(C)/C=N\n1cnnc1 (stereo unspecified)	inconclusive: 57.9%
CCCc1cc(=S)n2c([nH]c3ccccc32)c1C#N	inconclusive: 54.9%
O=C(NNC1CC(=O)N(c2ccc3c(c2)OCCO3)C1=O)c1ccc(Cl)cc1 (stereo unspecified)	inconclusive: 33.3%
Cc1ccccc1S(=O)(=O)Nc1ncnc2scc(-c3ccccc3)c12	inconclusive: 44.3%
O=C1CC(=O)c2c1cccc2[N+](=O)[O-]	inconclusive: 53.5%
CCOC(=O)c1sc(NC(=O)CN(CC(C)C)CC(C)C)c(C(=O)OCC)c1C	inconclusive: 37.3%
CSc1ccccc1NC(=O)c1cccnc1	inactive: -0.88%
CCSc1ncc(/C=N/Nc2ccc(Cl)cc2)n1C	inconclusive: 42.4%
CCOC(=O)C1CCN(C(=O)NS(=O)(=O)c2ccc(C)cc2)CC1	inconclusive: 33.7%
CC(=O)Nc1ccc(OCC(=O)N(CC(C)C)C2CCS(=O)(=O)C2)cc1 (stereo unspecified)	inconclusive: 36.8%
Cc1cccnc1NC(=O)c1ccccc1-c1ccccc1C(=O)Nc1ncccc1C	inconclusive: 48.4%
CC(C)C(=O)N(c1ccc2oc(=O)sc2c1)S(=O)(=O)c1ccccc1	inconclusive: 60.3%
O=C(Nc1ccccc1N1CCN(C(=O)c2ccccc2)CC1)c1ccccc1Cl	inconclusive: 35.6%
Cn1nnnc1SCC(=O)N1c2ccccc2Sc2ccccc21	inconclusive: 62.7%
c1ccc(-c2cn3nc4c(nc3n2)CCCC4)cc1	inconclusive: 35.7%

An excerpt of these results, with bars between the fields:
Compound | inhibition
Cc1ccc(Nc2nc(C(=O)NCC3CCCO3)cs2)cc1 (stereo unspecified) | inconclusive: 47.6%
Cc1cc2c(cc1[N+](=O)[O-])NC(CNC(C)C)CC2 (stereo unspecified) | inconclusive: 43.6%
C=C(C)C1CCC(C)=C1CC(C)(C)/C=N\n1cnnc1 (stereo unspecified) | inconclusive: 57.9%
CCCc1cc(=S)n2c([nH]c3ccccc32)c1C#N | inconclusive: 54.9%
Cc1ccccc1S(=O)(=O)Nc1ncnc2scc(-c3ccccc3)c12 | inconclusive: 44.3%
O=C1CC(=O)c2c1cccc2[N+](=O)[O-] | inconclusive: 53.5%
CCSc1ncc(/C=N/Nc2ccc(Cl)cc2)n1C | inconclusive: 42.4%
CCOC(=O)C1CCN(C(=O)NS(=O)(=O)c2ccc(C)cc2)CC1 | inconclusive: 33.7%
CC(=O)Nc1ccc(OCC(=O)N(CC(C)C)C2CCS(=O)(=O)C2)cc1 (stereo unspecified) | inconclusive: 36.8%
CC(C)C(=O)N(c1ccc2oc(=O)sc2c1)S(=O)(=O)c1ccccc1 | inconclusive: 60.3%
Cn1nnnc1SCC(=O)N1c2ccccc2Sc2ccccc21 | inconclusive: 62.7%
